Experimental data published in the supplement of paper PMC10849652.
The list shows a part of the results. Residues, ends and D or L forms follow the SMILES beside them. *: point of attachment. Cbz = O=C(OCc1ccccc1)*

Chains of the proteins cited; added tags and fusions are not shown. Lines headed by an entry give the natural chain unless they say otherwise; changes in a name come on top.
UniProt P23511, whole entry, looked up: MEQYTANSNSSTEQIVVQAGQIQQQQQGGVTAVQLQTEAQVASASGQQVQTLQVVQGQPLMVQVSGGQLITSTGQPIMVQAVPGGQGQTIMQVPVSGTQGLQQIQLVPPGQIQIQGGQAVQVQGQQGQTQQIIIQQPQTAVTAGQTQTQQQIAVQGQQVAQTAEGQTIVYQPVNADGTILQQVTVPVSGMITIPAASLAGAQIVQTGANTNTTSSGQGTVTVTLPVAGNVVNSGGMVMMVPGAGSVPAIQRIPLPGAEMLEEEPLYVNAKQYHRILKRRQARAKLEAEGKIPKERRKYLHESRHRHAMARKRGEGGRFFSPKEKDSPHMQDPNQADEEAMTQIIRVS
UniProt Q9H9Q4: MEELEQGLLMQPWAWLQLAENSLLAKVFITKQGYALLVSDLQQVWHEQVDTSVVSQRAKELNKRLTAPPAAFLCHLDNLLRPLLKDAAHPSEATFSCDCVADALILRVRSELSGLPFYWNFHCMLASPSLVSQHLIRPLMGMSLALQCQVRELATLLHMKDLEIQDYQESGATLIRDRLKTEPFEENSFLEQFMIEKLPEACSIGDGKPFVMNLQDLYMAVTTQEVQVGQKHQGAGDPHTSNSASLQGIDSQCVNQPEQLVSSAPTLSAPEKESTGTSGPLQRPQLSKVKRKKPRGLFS
UniProt P61916: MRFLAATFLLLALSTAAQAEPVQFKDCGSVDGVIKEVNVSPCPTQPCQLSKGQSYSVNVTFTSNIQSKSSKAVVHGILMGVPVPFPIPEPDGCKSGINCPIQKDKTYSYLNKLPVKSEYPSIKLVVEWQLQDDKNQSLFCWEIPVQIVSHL
UniProt Q9UMX5: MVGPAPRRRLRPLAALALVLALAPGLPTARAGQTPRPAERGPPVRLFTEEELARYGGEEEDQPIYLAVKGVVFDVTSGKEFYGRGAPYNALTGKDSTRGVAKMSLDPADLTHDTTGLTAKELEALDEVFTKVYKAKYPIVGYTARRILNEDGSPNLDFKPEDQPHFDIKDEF
UniProt Q9GZT8: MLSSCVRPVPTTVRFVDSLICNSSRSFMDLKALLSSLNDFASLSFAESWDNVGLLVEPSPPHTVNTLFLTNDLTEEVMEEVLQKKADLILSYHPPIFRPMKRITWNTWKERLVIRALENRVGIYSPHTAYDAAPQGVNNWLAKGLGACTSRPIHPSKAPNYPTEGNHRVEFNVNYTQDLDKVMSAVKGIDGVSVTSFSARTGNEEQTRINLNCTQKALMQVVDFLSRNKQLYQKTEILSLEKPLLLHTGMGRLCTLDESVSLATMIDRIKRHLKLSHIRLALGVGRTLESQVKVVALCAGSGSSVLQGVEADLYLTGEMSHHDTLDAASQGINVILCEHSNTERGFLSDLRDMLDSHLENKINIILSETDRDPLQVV
UniProt P46459: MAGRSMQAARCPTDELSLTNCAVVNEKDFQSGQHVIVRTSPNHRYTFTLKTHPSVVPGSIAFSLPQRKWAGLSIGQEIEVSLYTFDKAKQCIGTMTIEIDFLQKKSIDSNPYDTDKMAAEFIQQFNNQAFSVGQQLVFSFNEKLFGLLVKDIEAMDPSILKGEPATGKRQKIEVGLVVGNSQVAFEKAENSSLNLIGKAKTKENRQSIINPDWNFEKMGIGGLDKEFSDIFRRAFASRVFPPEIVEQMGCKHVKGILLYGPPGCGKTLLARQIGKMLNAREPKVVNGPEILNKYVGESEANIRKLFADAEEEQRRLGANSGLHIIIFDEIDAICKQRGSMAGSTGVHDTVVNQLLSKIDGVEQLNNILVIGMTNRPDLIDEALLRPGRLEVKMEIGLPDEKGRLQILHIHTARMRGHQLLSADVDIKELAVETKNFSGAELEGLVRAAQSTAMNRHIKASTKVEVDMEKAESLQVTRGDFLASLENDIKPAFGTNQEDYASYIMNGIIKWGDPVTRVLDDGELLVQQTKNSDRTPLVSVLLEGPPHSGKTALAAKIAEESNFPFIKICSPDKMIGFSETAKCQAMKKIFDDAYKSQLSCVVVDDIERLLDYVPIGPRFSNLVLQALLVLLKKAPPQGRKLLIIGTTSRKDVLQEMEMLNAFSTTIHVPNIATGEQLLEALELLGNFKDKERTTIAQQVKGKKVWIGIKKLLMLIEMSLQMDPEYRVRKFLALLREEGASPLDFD
UniProt Q9UHY1: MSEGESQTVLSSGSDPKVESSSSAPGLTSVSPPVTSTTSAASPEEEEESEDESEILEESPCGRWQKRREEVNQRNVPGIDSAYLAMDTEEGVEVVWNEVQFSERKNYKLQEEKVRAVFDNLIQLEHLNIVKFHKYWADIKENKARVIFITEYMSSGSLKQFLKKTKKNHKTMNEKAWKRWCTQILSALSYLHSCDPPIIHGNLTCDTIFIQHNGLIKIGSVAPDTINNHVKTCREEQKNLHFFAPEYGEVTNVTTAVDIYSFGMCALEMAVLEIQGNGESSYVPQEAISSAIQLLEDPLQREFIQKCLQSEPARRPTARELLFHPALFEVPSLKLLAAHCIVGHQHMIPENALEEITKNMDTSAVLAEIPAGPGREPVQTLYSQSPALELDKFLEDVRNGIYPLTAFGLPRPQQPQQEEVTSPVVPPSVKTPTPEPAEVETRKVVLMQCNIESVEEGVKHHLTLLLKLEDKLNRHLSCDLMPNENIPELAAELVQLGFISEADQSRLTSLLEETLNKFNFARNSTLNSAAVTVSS
UniProt P35240: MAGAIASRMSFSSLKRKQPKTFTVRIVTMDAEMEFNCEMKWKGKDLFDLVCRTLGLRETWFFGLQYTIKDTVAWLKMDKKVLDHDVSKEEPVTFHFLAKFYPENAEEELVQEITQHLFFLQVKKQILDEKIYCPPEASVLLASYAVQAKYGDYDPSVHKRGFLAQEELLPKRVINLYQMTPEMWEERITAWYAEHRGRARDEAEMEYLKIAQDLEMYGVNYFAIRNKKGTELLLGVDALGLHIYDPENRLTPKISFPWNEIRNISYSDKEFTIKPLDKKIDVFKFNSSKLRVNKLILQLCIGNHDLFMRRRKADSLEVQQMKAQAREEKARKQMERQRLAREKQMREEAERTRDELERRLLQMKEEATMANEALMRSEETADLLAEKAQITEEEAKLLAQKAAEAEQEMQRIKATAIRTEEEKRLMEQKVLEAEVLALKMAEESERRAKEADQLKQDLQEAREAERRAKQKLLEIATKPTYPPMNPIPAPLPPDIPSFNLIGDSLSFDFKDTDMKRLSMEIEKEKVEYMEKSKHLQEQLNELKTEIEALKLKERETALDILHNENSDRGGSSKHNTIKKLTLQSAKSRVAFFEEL
UniProt P16083: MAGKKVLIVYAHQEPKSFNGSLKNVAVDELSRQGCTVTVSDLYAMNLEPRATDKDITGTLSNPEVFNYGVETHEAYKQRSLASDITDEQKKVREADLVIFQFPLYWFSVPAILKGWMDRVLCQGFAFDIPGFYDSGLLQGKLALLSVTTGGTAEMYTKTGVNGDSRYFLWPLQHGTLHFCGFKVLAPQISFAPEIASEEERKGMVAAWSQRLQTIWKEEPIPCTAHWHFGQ
UniProt Q9NQR4: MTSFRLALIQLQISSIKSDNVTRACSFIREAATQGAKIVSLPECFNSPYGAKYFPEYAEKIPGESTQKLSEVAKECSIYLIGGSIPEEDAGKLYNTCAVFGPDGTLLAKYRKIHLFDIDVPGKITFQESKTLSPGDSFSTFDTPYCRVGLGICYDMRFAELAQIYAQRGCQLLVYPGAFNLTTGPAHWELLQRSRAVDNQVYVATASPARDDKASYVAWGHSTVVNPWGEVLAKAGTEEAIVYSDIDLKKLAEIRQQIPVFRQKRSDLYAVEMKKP
UniProt Q15155: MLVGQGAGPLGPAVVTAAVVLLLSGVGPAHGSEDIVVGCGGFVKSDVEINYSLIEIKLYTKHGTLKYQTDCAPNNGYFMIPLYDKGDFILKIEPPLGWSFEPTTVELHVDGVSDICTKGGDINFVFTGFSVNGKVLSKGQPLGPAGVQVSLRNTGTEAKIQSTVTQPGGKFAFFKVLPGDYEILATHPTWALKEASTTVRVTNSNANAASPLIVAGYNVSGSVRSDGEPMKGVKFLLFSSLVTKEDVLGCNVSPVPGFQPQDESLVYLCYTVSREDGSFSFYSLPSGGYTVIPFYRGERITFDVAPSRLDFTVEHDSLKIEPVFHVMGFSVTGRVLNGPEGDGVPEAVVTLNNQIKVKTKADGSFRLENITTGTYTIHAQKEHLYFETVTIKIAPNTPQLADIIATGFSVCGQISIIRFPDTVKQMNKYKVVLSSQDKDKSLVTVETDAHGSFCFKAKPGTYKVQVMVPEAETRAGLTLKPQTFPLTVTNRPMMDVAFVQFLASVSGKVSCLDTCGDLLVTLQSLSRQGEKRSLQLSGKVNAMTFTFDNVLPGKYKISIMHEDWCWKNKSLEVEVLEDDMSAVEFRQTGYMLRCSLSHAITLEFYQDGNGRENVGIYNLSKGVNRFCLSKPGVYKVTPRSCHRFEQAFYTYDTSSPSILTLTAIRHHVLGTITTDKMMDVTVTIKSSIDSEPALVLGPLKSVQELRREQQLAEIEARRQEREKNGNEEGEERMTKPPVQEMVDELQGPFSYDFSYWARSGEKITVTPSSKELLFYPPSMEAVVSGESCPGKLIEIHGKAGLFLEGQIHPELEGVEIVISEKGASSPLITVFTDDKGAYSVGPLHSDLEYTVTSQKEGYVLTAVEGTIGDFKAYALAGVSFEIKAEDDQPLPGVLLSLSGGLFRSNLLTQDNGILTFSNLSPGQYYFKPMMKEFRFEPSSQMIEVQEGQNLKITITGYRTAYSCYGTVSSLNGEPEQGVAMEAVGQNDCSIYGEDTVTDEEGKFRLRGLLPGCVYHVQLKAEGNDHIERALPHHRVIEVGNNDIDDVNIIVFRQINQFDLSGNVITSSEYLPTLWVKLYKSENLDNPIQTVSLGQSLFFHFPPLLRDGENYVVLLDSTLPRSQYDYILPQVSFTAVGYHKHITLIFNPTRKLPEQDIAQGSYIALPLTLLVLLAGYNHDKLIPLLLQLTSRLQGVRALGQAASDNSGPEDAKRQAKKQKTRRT
UniProt Q9BYT8, whole entry, looked up: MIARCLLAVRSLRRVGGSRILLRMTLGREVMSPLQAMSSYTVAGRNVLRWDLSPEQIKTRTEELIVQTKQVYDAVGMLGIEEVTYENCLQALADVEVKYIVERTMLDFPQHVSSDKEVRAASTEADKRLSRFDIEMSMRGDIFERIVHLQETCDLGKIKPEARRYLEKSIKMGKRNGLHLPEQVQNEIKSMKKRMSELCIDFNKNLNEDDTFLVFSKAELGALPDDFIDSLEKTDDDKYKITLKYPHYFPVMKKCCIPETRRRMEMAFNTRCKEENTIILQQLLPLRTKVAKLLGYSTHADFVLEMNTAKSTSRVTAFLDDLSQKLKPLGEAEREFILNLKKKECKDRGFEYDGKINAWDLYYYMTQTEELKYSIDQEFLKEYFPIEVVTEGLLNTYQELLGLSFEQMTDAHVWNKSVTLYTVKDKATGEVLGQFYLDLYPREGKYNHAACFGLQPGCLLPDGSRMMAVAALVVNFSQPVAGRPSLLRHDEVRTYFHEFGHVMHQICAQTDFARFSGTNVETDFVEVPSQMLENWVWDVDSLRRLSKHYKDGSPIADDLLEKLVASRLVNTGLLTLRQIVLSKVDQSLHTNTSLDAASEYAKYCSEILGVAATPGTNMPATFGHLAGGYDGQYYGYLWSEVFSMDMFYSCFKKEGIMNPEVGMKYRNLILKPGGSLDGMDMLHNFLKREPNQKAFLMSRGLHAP
UniProt Q15233: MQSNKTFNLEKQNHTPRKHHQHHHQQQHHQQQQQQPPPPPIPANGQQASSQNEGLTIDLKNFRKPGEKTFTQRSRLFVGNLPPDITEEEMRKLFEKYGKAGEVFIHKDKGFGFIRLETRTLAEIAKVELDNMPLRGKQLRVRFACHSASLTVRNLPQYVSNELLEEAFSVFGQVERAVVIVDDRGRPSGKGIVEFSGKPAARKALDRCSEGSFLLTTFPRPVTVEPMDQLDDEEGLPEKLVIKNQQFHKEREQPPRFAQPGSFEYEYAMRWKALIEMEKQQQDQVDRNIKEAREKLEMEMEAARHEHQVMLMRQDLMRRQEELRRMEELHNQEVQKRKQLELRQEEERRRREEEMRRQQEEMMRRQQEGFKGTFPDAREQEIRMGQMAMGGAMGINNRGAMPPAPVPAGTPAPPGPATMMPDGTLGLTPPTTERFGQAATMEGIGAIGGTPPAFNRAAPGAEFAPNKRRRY

Assays:
Assay in all cases: log2 fold change, soluble protein after heating vs DMSO (PISA); higher = thermal stabilisation; K562 cells, 10 uM, 30 min; active = over 0.2 and 3.5 SD of the protein, either way, in both replicates (recomputed)
[1] = compound: C#Cc1cccc(Nc2ncnc3cc(OCCOC)c(OCCOC)cc23)c1 [erlotinib]
Method in brief: (§1)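 Thermal stability values are relative to control samples and come from duplicates. They are expressed as log2 fold changes. For measurement, K562 cells (2×10^6 cells/mL) received 10 μM compound for 30 min, and aliquots were heated for 3 min over 48°C-58°C, pooled, and extracted at 4°C in PBS with 0.5% NP-40. Soluble protein, the supernatant after 21,000xg for 90 min, was quantified by TMTpro 16plex LC-MS/MS with equalised channel sums.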

[2] = compound: C/C(=N\NC(=O)C1=CC(=CC=C1)S(=O)(=O)N2CCOCC2)/C3=C(C=CC(=C3)Cl)O
Method in brief: as §1

[3] = compound: C1=CC(=C(C=C1Cl)C2=NC3=NC=CN=C3C(=N2)NC4=CC=NC=C4)F
Method in brief: as §1

[4] = compound: C1=CC(=CC=C1C2=NC3=C(N2)C=C(C=C3)C(=O)N)OC4=CC=C(C=C4)Cl
Method in brief: as §1

[5] = compound: C1=CC2=C(C=CC(=C2)/C=C\3/C(=O)NC(=NCC4=CC=CS4)S3)N=C1
Method in brief: as §1

[6] = compound: C1=CC2=NC=CN=C2C=C1/C=C/3\C(=O)NC(=O)S3
Method in brief: as §1

[7] = compound: C1=CC=C(C=C1)C2=NC(=C(N2)C3=CC=NC=C3)C4=CC(=C(C=C4)Cl)O
Method in brief: as §1

[8] = compound: C1=CC=C2C(=C1)C3=NNC4=CC=CC(=C43)C2=O
Method in brief: as §1

[9] = compound: C1CCN(C1)C(=O)NC2=CC=CC(=C2)NC3=NC=C(C(=N3)NCCC4=CN=CN4)Br
Method in brief: as §1

[10] = compound: C1CN(CCC1(CC2=CC=C(C=C2)Cl)N)C3=NC=NC4=C3C=CN4
Method in brief: as §1

[11] = compound: C1COCCN1CCN2C3=CC=CC=C3N=C2NC(=O)C4=CC(=CC=C4)[N+](=O)[O-] [IRAK-1-4 Inhibitor I]
Method in brief: as §1

[12] = compound: C=CC(=O)N1CCC[C@@H](n2nc(-c3ccc(Oc4ccccc4)cc3)c3c(N)ncnc32)C1 [ibrutinib]
Method in brief: as §1

[13] = compound: CC(=O)c1cnc2ccc(-c3cc(Cl)c(O)c(Cl)c3)nc2c1N[C@H]1CC[C@H](CN(C)C)CC1
Method in brief: as §1

[14] = compound: CC(C)(C)Cn1c(N)nc2ccc(-c3[nH]c(C(C)(C)C)nc3-c3ccc(F)cc3)nc21 [ralimetinib]
Method in brief: as §1

[15] = compound: CC(C)(O)CC(=O)NCCn1ccc2ncnc(Nc3ccc(Oc4cccc(C(F)(F)F)c4)c(Cl)c3)c21
Method in brief: as §1

[16] = compound: CC(C)C1=C2N=C(C=C(N2N=C1)NCC3=CC=CC=C3)NCCCCCCN
Method in brief: as §1

[17] = compound: CC(C)C[C@@H](C=O)NC(=O)[C@H](CC(C)C)NC(=O)[C@H](CC(C)C)NC(=O)OCc1ccccc1
Method in brief: as §1

[18] = compound: CC(C)N(C[C@H]1O[C@@H](n2cnc3c(N)ncnc32)[C@H](O)[C@@H]1O)[C@H]1C[C@@H](CCc2nc3cc(C(C)(C)C)ccc3[nH]2)C1 [pinometostat]
Method in brief: as §1

[19] = compound: CC1=C(C(CC(=O)N1)C2=CC=C(C=C2)C(F)(F)F)C(=O)NC3=C(C=C4C(=C3)C=NN4)F
Method in brief: as §1

[20] = compound: CC1=C(C2=C(C=C1)C(=O)C3=CC=CC=C3N2CCCN)C
Method in brief: as §1

Measured: log2 fold change

NFYA (UniProt P23511)
inactive: [1] 0.109 | [2] -0.056 | [3] -0.33 | [4] 0.011 | [5] 0.032 | [6] 0.003 | [7] -0.143 | [8] -0.031 | [9] -0.081 | [10] -0.005 | [11] 0.19 | [12] 0.064 | [13] 0.037 | [14] 0.026 | [15] -0.009 | [16] 0.024 | [17] 0.061 | [18] -0.023 | [19] -0.041 | [20] 0.331

NHEJ1 (UniProt Q9H9Q4)
inactive: [1] -0.035 | [2] 0.094 | [3] 0.103 | [4] 0.016 | [5] -0.045 | [6] 0.055 | [7] 0 | [8] 0.081 | [9] -0.082 | [10] 0.15 | [11] 0.043 | [12] -0.064 | [13] -0.021 | [14] 0.017 | [15] -0.016 | [16] 0.007 | [17] 0.014 | [18] 0.032 | [19] -0.001 | [20] 0.095

NPC2 (UniProt P61916)
inactive: [1] 0.007 | [2] -0.074 | [3] 0.052 | [4] 0.008 | [5] -0.018 | [6] 0.089 | [7] 0.085 | [8] 0.073 | [9] 0.004 | [10] 0.016 | [11] 0.024 | [12] 0.054 | [13] 0.008 | [14] -0.021 | [15] -0.011 | [16] -0.004 | [17] -0.046 | [18] -0.077 | [19] 0.057 | [20] -0.016

NLRP2 (UniProt Q9NX02)
inactive: [1] 0.039 | [2] 0.016 | [3] -0.17 | [4] -0.03 | [5] 0.041 | [6] 0.031 | [7] 0.037 | [8] 0.029 | [9] -0.04 | [10] -0.113 | [11] -0.095 | [12] -0.056 | [13] 0.024 | [14] 0.165 | [15] -0.067 | [16] -0.269 | [17] 0.051 | [18] 0.139 | [19] 0.066 | [20] 0.02

NENF (UniProt Q9UMX5)
inactive: [1] 0.037 | [2] 0.039 | [3] 0.055 | [4] -0.016 | [5] 0.009 | [6] 0.032 | [7] -0.03 | [8] 0.015 | [9] 0.035 | [10] 0.003 | [11] 0.071 | [12] -0.012 | [13] 0.019 | [14] -0.034 | [15] 0.003 | [16] 0.056 | [17] -0.01 | [18] -0.017 | [19] -0.019 | [20] 0.043

NRAS (UniProt P01111)
inactive: [1] -0.072 | [2] 0.001 | [3] 0.02 | [4] 0.043 | [5] 0.002 | [6] 0.004 | [7] -0.043 | [8] -0.059 | [9] -0.048 | [10] 0.066 | [11] 0.045 | [12] 0.005 | [13] -0.093 | [14] -0.038 | [15] 0.041 | [16] 0.13 | [17] -0.021 | [18] -0.029 | [19] -0.024 | [20] 0.003

NIF3L1 (UniProt Q9GZT8)
inactive: [1] -0.011 | [2] -0.053 | [3] -0.057 | [4] 0.008 | [5] 0.032 | [6] -0.108 | [7] -0.025 | [8] -0.03 | [9] 0.011 | [10] 0.022 | [11] 0.054 | [12] 0.111 | [13] -0.027 | [14] -0.047 | [15] -0.016 | [16] 0.081 | [17] -0.004 | [18] -0.012 | [19] 0.017 | [20] 0.001

NSF (UniProt P46459)
inactive: [1] 0.009 | [2] 0.065 | [3] 0.012 | [4] -0.003 | [5] 0.052 | [6] 0.009 | [7] -0.001 | [8] 0.051 | [9] 0.02 | [10] -0.038 | [11] -0.011 | [12] -0.004 | [13] 0.009 | [14] -0.004 | [15] -0.079 | [16] -0.105 | [17] 0.047 | [18] 0.026 | [19] 0.004 | [20] 0.053

NRBP1 (UniProt Q9UHY1)
inactive: [1] -0.011 | [2] 0.081 | [3] 0.027 | [4] -0.006 | [5] 0.002 | [6] 0.045 | [7] -0.007 | [8] 0.014 | [9] -0.04 | [10] 0.005 | [11] -0.003 | [12] 0.008 | [13] 0.008 | [14] -0.047 | [15] 0 | [16] 0.013 | [17] -0.009 | [18] -0.014 | [19] -0.011 | [20] 0.012

NF2 (UniProt P35240)
inactive: [1] -0.001 | [2] -0.021 | [3] -0.022 | [4] 0.05 | [5] 0.088 | [6] 0.045 | [7] -0.064 | [8] -0.028 | [9] -0.072 | [10] 0.027 | [11] 0.007 | [12] 0 | [13] -0.12 | [14] 0.029 | [15] -0.058 | [16] -0.047 | [17] -0.035 | [18] 0.032 | [19] -0.011 | [20] 0.059

NQO2 (UniProt P16083)
inactive: [1] 0.016 | [2] -0.004 | [3] -0.014 | [4] 0.038 | [5] -0.025 | [6] -0.017 | [7] -0.035 | [8] -0.023 | [9] 0.023 | [10] 0.075 | [11] 0.05 | [12] 0.057 | [13] 0.015 | [14] -0.039 | [15] 0.068 | [16] 0.083 | [17] -0.026 | [18] -0.036 | [19] 0.004 | [20] -0.001

NIT2 (UniProt Q9NQR4)
inactive: [1] 0.012 | [2] 0.003 | [3] 0.069 | [4] 0.004 | [5] 0.041 | [6] 0.001 | [7] -0.065 | [8] -0.004 | [9] 0.009 | [10] 0.043 | [11] 0.025 | [12] 0.013 | [13] 0.032 | [14] -0.068 | [15] 0 | [16] 0.02 | [17] 0.014 | [18] -0.034 | [19] -0.025 | [20] 0.021

NOMO1 (UniProt Q15155)
inactive: [1] -0.191 | [2] -0.186 | [3] 0.006 | [4] 0.024 | [5] -0.192 | [6] -0.048 | [7] -0.155 | [8] 0.11 | [9] -0.119 | [10] 0.103 | [11] -0.046 | [12] -0.107 | [13] 0.279 | [14] 0.021 | [15] 0.054 | [16] -0.038 | [17] -0.016 | [18] 0.005 | [19] -0.002 | [20] 0.047

2 neighbouring records already listed, quoted:
NQO2 (UniProt P16083)
inactive: [1] 0.016 | [2] -0.004 | [3] -0.014 | [4] 0.038 | [5] -0.025 | [6] -0.017 | [7] -0.035 | [8] -0.023 | [9] 0.023 | [10] 0.075 | [11] 0.05 | [12] 0.057 | [13] 0.015 | [14] -0.039 | [15] 0.068 | [16] 0.083 | [17] -0.026 | [18] -0.036 | [19] 0.004 | [20] -0.001

NIT2 (UniProt Q9NQR4)
inactive: [1] 0.012 | [2] 0.003 | [3] 0.069 | [4] 0.004 | [5] 0.041 | [6] 0.001 | [7] -0.065 | [8] -0.004 | [9] 0.009 | [10] 0.043 | [11] 0.025 | [12] 0.013 | [13] 0.032 | [14] -0.068 | [15] 0 | [16] 0.02 | [17] 0.014 | [18] -0.034 | [19] -0.025 | [20] 0.021

Later entries.

NOMO2 (UniProt Q5JPE7)
inactive: [1] -0.03 | [2] 0.036 | [3] 0.004 | [4] -0.013 | [5] 0.045 | [6] 0.013 | [7] 0.037 | [8] 0.013 | [9] -0.019 | [10] 0.011 | [11] -0.011 | [12] 0.011 | [13] 0.007 | [14] 0.027 | [15] -0.019 | [16] -0.1 | [17] -0.008 | [18] 0.009 | [19] -0.001 | [20] 0.033

NLN (UniProt Q9BYT8)
inactive: [1] 0.023 | [2] 0 | [3] 0.078 | [4] -0.009 | [5] 0.071 | [6] 0.003 | [7] 0.015 | [8] 0.024 | [9] -0.023 | [10] 0.037 | [11] 0.02 | [12] 0.002 | [13] -0.014 | [14] -0.025 | [15] -0.049 | [16] 0.061 | [17] -0.052 | [18] -0.043 | [19] -0.005 | [20] 0.05

NONO (UniProt Q15233)
inactive: [1] 0.063 | [2] 0.022 | [3] -0.29 | [4] 0.049 | [5] -0.041 | [6] 0.103 | [7] -0.003 | [8] -0.05 | [9] -0.074 | [10] -0.254 | [11] -0.162 | [12] -0.037 | [13] -0.075 | [14] 0.126 | [15] -0.017 | [16] -0.286 | [17] 0.271 | [18] 0.166 | [19] 0.027 | [20] -0.132
